Values quoted from earlier work in US20020146694A1, “Functionating genomes with cross-species coregulation” (priority 2001, published 2002).
For at least one compound, name, drawing or mass did not settle the structure.

System: Tet promoter
Details: Tet system in yeast

C[C@H]1c2cccc(O)c2C(=O)C2=C(O)[C@]3(O)C(=O)C(C(N)=O)=C(O)[C@@H](N(C)C)[C@@H]3[C@@H](O)[C@@H]21 [doxycycline]
levels of doxycycline that give maximal repression of promoter activity: 10 micrograms/ml
